Measurements: the supplement of paper PMC11006884
The list shows a part of the results, in another mix than the full data.

Protein sequences, listed by entry. Tags and fused reporters are not part of them. Lines headed by an entry give the natural chain unless they say otherwise; changes in a name come on top.
UniProt Q96A49: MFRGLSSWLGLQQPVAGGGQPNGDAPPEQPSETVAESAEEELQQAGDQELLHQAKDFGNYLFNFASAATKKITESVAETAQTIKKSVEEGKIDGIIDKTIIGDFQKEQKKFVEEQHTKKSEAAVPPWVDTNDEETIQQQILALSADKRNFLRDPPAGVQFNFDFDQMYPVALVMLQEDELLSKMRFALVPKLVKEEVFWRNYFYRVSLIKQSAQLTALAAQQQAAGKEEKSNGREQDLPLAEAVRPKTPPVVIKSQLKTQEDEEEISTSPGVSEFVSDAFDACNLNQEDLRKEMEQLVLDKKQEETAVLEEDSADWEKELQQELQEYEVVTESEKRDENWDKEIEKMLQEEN
UniProt Q96AG4: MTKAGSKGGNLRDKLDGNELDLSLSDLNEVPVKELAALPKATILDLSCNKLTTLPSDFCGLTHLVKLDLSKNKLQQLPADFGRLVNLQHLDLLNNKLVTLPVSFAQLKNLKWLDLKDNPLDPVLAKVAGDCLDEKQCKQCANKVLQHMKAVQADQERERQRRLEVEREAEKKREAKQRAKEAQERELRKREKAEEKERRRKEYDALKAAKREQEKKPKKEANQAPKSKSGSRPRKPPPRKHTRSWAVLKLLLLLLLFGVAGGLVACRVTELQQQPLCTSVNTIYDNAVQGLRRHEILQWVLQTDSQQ
UniProt Q92688: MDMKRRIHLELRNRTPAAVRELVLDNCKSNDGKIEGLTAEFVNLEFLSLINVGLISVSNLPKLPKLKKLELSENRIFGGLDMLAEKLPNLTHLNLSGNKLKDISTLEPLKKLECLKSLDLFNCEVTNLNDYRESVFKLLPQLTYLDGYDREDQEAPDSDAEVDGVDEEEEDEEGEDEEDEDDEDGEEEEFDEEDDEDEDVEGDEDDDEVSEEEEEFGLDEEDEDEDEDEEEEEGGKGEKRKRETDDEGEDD
UniProt Q93008, whole entry, looked up: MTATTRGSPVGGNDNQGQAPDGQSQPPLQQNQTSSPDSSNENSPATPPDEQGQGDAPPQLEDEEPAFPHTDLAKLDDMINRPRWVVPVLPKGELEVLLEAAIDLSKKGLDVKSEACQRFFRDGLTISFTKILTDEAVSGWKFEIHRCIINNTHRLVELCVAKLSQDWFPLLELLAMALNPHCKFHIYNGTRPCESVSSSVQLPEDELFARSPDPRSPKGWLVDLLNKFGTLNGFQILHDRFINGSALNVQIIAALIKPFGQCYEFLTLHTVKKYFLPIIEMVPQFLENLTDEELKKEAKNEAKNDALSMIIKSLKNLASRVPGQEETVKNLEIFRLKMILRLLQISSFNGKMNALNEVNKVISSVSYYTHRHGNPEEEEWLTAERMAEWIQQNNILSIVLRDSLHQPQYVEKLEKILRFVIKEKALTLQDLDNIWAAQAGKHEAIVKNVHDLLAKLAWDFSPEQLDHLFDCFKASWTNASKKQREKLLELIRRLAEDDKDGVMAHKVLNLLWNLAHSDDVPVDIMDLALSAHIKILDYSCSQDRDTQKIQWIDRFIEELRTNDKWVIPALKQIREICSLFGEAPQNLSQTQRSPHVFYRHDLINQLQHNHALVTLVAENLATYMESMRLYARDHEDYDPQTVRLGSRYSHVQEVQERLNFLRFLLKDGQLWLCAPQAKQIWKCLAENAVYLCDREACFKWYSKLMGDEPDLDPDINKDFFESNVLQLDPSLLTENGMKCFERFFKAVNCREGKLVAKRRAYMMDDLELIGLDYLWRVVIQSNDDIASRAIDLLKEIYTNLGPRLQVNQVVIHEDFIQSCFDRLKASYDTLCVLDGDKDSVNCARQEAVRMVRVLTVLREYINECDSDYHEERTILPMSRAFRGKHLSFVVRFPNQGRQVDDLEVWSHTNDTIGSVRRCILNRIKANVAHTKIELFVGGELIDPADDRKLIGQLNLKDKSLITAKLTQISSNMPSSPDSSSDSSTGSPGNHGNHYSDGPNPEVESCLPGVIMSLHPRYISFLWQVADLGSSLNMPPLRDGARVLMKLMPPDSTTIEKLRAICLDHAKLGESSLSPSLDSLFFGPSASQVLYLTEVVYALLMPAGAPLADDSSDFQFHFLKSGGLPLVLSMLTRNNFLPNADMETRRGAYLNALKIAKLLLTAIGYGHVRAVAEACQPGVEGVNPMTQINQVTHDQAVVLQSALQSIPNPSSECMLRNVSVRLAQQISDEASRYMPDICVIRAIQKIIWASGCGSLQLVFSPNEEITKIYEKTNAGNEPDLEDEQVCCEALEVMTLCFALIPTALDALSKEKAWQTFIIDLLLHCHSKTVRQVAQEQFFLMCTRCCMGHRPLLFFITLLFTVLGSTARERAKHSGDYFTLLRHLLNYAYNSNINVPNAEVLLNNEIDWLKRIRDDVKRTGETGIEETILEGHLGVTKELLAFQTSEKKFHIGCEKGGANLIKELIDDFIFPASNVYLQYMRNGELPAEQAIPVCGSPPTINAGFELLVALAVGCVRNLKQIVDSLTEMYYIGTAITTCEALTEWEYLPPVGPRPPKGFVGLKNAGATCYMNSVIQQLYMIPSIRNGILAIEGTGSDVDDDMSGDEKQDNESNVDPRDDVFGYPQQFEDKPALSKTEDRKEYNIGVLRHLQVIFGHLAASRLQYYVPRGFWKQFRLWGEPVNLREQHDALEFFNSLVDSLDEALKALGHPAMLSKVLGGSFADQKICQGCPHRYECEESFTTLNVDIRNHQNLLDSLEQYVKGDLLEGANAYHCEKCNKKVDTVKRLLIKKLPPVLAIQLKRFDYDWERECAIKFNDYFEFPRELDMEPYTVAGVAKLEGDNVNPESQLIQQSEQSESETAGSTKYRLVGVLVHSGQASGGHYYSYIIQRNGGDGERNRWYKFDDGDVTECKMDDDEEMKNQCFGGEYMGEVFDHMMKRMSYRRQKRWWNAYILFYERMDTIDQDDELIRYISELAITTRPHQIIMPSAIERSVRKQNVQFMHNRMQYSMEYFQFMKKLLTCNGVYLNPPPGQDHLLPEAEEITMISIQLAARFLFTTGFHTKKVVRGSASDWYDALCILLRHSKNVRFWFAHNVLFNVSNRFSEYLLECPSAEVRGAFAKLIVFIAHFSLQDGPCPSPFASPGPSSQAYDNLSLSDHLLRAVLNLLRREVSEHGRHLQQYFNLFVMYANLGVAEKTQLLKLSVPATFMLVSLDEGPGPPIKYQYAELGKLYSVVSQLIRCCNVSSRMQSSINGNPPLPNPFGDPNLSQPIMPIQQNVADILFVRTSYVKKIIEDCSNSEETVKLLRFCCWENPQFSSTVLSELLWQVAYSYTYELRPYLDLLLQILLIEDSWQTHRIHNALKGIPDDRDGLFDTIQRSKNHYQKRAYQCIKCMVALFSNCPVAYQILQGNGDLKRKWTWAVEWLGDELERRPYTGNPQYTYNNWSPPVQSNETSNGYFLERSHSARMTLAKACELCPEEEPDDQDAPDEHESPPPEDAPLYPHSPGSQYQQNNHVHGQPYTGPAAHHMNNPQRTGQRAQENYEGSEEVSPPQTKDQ
UniProt Q92598: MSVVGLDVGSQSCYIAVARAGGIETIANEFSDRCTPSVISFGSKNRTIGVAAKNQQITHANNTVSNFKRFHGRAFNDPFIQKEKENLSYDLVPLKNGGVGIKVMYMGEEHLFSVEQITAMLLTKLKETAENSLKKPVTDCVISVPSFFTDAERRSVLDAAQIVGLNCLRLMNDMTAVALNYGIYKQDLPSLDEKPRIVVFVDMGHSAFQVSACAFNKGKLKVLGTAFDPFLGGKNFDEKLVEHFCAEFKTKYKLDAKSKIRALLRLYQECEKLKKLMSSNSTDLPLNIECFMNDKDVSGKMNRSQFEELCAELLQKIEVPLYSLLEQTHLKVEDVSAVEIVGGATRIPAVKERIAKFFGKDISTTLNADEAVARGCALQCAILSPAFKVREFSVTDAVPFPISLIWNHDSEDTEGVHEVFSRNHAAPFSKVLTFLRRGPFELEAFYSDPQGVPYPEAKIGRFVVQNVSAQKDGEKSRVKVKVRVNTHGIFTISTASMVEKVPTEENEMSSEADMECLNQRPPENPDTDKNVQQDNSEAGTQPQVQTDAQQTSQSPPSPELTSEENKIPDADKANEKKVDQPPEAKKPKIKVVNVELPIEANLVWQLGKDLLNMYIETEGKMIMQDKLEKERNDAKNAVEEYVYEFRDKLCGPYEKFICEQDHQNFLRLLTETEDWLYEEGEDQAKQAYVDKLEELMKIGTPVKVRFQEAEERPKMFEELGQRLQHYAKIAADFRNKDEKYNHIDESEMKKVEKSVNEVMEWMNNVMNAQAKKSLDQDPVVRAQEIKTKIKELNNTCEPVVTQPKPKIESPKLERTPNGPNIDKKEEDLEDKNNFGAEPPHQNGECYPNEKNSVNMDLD
UniProt Q92974: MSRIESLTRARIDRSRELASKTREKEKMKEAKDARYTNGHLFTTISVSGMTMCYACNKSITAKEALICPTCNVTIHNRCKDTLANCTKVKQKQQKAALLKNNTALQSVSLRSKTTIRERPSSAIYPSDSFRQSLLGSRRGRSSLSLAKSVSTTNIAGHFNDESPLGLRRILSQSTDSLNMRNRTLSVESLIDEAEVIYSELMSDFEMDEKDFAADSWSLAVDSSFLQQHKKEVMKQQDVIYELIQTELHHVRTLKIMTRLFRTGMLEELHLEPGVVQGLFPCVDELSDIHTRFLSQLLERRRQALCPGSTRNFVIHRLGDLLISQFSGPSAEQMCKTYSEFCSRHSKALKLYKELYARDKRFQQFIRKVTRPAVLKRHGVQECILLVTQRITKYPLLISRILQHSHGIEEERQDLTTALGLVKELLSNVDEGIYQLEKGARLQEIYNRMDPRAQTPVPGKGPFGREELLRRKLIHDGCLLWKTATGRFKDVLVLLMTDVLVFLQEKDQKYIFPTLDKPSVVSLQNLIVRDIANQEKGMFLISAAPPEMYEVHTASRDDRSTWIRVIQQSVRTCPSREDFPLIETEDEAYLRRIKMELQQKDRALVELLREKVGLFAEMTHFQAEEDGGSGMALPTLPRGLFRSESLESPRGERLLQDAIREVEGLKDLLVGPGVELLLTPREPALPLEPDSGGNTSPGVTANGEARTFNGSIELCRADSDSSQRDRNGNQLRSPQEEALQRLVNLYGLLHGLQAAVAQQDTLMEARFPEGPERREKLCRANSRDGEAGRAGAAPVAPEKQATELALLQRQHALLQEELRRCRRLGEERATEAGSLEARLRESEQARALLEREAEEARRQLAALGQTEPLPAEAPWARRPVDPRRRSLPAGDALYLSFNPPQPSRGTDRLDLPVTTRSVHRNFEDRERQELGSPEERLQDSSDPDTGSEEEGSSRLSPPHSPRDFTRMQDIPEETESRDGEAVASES
UniProt Q93073: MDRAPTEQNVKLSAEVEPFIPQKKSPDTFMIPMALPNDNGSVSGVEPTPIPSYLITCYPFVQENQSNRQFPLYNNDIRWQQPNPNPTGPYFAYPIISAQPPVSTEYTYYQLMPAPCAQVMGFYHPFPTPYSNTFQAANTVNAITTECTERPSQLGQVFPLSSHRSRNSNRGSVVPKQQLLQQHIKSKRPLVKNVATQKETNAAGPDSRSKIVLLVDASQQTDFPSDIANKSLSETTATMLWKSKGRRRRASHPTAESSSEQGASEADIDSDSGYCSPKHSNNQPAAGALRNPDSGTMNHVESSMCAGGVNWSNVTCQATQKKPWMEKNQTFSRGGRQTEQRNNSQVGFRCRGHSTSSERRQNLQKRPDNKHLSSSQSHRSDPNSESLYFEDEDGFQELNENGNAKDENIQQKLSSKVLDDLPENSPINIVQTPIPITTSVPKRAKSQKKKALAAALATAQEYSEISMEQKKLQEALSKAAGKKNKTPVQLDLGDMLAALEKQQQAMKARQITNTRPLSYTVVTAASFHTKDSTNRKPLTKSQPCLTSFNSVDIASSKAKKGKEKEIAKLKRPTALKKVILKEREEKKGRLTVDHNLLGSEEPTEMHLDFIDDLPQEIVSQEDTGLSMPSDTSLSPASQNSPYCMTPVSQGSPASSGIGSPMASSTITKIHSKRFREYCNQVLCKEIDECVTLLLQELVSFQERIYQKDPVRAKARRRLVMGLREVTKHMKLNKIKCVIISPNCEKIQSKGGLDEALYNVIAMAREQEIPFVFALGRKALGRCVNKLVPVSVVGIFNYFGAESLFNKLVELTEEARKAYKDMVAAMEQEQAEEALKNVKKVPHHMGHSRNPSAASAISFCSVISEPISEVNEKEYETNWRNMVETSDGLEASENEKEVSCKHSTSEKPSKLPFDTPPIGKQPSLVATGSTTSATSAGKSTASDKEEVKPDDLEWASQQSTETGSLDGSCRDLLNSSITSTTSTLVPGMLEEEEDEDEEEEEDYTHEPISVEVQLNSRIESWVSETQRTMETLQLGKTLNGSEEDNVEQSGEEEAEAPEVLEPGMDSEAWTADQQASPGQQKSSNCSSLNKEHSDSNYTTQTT
UniProt Q96EK6: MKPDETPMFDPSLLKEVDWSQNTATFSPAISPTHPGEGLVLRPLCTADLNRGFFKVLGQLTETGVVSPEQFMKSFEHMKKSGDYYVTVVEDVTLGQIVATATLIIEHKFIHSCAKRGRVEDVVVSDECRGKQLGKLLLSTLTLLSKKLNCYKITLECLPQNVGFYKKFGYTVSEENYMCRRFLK

compound: COC(=O)C#Cc1ccccc1 [methyl 3-phenylpropiolate]; assay: log2 ratio of iodoacetamide-alkyne labeling of the cysteine site, DMSO over compound (competition); higher = stronger covalent engagement of the cysteine by the compound, active = 1 or more; settings: 500 µM; treatment time 1 h; system: HEK293T cell lysate
In short: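 The log2 competition ratio per cysteine is defined as mean reporter intensity in control channels over mean reporter intensity in compound channels. Lysate from HEK293T cells (2 mg/mL) received electrophile (500 µM) or vehicle for 1 h at ambient temperature, followed by iodoacetamide alkyne for 1 h. Samples were clicked to sCIP-TMT reagents, pooled, trypsin-digested overnight at 37 °C, streptavidin-enriched, acid-eluted and run on Orbitrap Eclipse LC-MS/MS with FAIMS, with quantification in FragPipe. Three replicates with duplicate channels were used, and any cysteine quantified in only one replicate was excluded.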

log2 ratio of iodoacetamide-alkyne labeling, inactive:
RPL36AL C72 (UniProt Q969Q0) 0.0561
SYAP1 C283 (UniProt Q96A49) 0.206
GBF1 C1414 (UniProt Q92538) -0.0335
WBP2 C80 (UniProt Q969T9) 0.811
AKT1S1 C44 (UniProt Q96B36) 0.465
UniProt Q92841_C277 0.761
LRRC59 C59 (UniProt Q96AG4) 0.222
GBF1 C592 (UniProt Q92538) 0.278
UniProt Q96GC9_C8 0.682
DPF2 C374 (UniProt Q92785) 0.269
MMAB C132 (UniProt Q96EY8) 0.488
PHF3 C843 (UniProt Q92576) 0.585
SNF8 C72 (UniProt Q96H20) 0.2
UniProt Q92616_C2558 0.196
UniProt Q92841_C584 0.359
ANP32B C123 (UniProt Q92688) -0.00811
LIN37 C119 (UniProt Q96GY3) 0.255
USP9X C673 (UniProt Q93008) 0.212
PHKB C299 (UniProt Q93100) -0.0632
UniProt Q96GS4_C176 0.558
HSPH1 C290 (UniProt Q92598) 0.152
LRRC59 C277 (UniProt Q96AG4) 0.605
ARHGEF2 C383 (UniProt Q92974) 0.434
NRBF2 C126 (UniProt Q96F24) 0.14
HDAC2 C417 (UniProt Q92769) 0.126
HSPH1 C34 (UniProt Q92598) -0.0617
GLMN C406 (UniProt Q92990) -0.506
ATG2B C243 (UniProt Q96BY7) 0.198
UniProt Q92888_C815 0.354
CREBBP C1200 (UniProt Q92793) 0.966
SECISBP2L C544 (UniProt Q93073) 0.341
SYMPK C848 (UniProt Q92797) 0.491
GNPNAT1 C45 (UniProt Q96EK6) 0.234
UniProt Q92888_C537 0.793
ARHGEF2 C335 (UniProt Q92974) 0.389
DPF2 C53 (UniProt Q92785) 0.433
NUP205 C1662 (UniProt Q92621) 0.151

Copied from the entries so far for reference:
log2 ratio of iodoacetamide-alkyne labeling, inactive:
USP9X C673 (UniProt Q93008) 0.212
PHKB C299 (UniProt Q93100) -0.0632
UniProt Q96GS4_C176 0.558
HSPH1 C290 (UniProt Q92598) 0.152
LRRC59 C277 (UniProt Q96AG4) 0.605
ARHGEF2 C383 (UniProt Q92974) 0.434
NRBF2 C126 (UniProt Q96F24) 0.14
HDAC2 C417 (UniProt Q92769) 0.126
